About 3,700 (7%) of roughly 53,000 sequences were called active.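 How the source made its calls: active means gene knockdowns whose robust z-score for IL-1 alpha signal is at least 2 or at most -2, so actives lie on both sides; inactive means the rest.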 The list shows a part of the results.
Assay: Components of the Cytosolic LPS Sensing Pathway: Gene Identification via Genome-wide siRNA Screen;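 further: robust z of the log signal after scaling to non-targeting control siRNA wells of the plate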
Details: RAW264.7 macrophages, IL-1a HTRF, actives lie on both sides, screened at 100 nM (by protocol), cells primed 5 h with Pam3CSK4 first
Summary of the method: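 RAW264.7 mouse macrophages reverse-transfected with single siRNAs (100 nM final) for 48h, primed with Pam3CSK4 for 5 hours, then transfected with LipidA for 24 hour. Supernatant IL-1a read by HTRF; values normalized to negative-control median, log-transformed robust z-scores.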

Row | Sequence | z-score
1 | CCUAGCUAAUAAAACAUGUTT against Ptgr1 | inactive: 0.183
2 | GGCUACCGCCACAUUGAUUTT against Akr1a1 | inactive: -1.11
3 | GGUAUCUGACAUCAUUUCUTT against Csn1s2b | inactive: 1.58
4 | CCACUCAACAUGACAACUATT against Chrna2 | inactive: 1.9
5 | GGUGUGAAACGAAAAAAGATT against Hivep1 | inactive: 0.0572
6 | GCUACGACGUAACUGACAATT against Rpl3l | inactive: -0.222
7 | GGAUGAUCAUUUUGUUGCATT against Glod4 | inactive: 0.607
8 | GGAUGGUCUUAGGAUUACGTT against Fgf15 | active: 2.04
9 | GGCCUAUUCUACCUGUAGCTT against Olfr167 | inactive: 0.298
10 | GCAAGCACGGAGAACCAAUTT against Selenoi | inactive: -0.212
11 | GGAGAAACUGAUGACAGUGTT against Plcb3 | inactive: -1.01
12 | GGAGGAAGUGAAGAAGAUATT against Echdc1 | inactive: -0.00291
13 | CCCGCUUUCAGUCUUAACATT against Coa5 | inactive: -0.465
14 | GCAACUGUUACUUCUCAACTT against Lrif1 | inactive: 0.598
15 | GCUGAAGAAUGCUAUAAUUTT against Olfr63 | inactive: 0.00913
16 | GAAAGCUAACCUCUUUCUGTT against Ang2 | inactive: 1.53
17 | GGAAAUGCCACUAAAGAGUTT against Zdhhc3 | inactive: -0.438
18 | GGAGGUCCUGAAACACCUCTT against Apc2 | inactive: -0.391
19 | AGCUCUAGCAACUAAGCGCTT against Fbxw26 | inactive: 1.12
20 | CCAAUCCCAUCCUCAUCCUTT against Fev | inactive: 0.317
21 | GGUGCCGCCUUUGAUUGCATT against Gsto1 | inactive: -0.231
22 | GCAUUAUGUCAGUAGCUCATT against Snrpb | active: -3.47
23 | GGUAUAAAUUUUCUCAGCUTT against Sntg1 | inactive: -0.18

Row | Sequence | z-score
24 | GCAAAUUUUAUCAACCGCATT against Mical3 | inactive: -0.0618
25 | GGGAUGAUUCAAUGGAUAATT against Tbx22 | inactive: 0.789
26 | GGUAGAGAUGUCUAAAGAUTT against Galnt9 | inactive: -0.358
27 | GGUCCAUUAGCUAAAUCUUTT against Mysm1 | inactive: 1.87
28 | GGAGCAGGAUAUUGAGACCTT against Ndrg1 | inactive: -0.916
29 | GGCCAACAAGGAAAACAUCTT against Bcas2 | inactive: 1.33
30 | CCGAGUAAGUUUAACUAAGTT against Lrrc39 | inactive: -0.501
31 | GGGAUUUUCUGUGUAUCUUTT against Coq5 | inactive: -1.2
32 | GGAGCAUCUCCUCAUGGAUTT against Actl11 | active: 2.08
33 | GCAUUCACUCCAUCAAUAGTT against Ccdc149 | inactive: -0.809
34 | GGCUCUUGCUUUAGUAUUCTT against Ly9 | inactive: 0.99
35 | GGGCUCCUUGUUUUAUUCUTT against Prelid1 | inactive: 0.485
36 | GGAGAAAGUGGACAGGGCUTT against Jph4 | inactive: 0.00563
37 | GGAGGAAAUUAUAAACAAGTT against Ifit1 | inactive: -0.149
38 | GGGAAUUCAUUGAGAAAUATT against Anxa6 | inactive: 1.26
39 | GGUGGAUUUGACUAUGCCCTT against Ptprv | inactive: 0.494
40 | AGGCCUUCAAUAUCCCAUCTT against Zfp457 | inactive: 0.229
41 | GGACCAGACGAACAGUGAUTT against Surf2 | active: 2.28
42 | GGCGGAGAGGAAAUCUAUGTT against Mycs | inactive: 1.4
43 | CCUACUUACUCCUGUAUAATT against Adam3 | inactive: 1.77
44 | CCAUAUCUCAUCCUACAGCTT against Tnk1 | inactive: -0.432
45 | GGGAAAACUUGGAUAUUCUTT against Vopp1 | inactive: 0.507
46 | GGAUACAAUCAUCGCCAUCTT against Olfr101 | inactive: 1.3

Row | Sequence | z-score
47 | GGAUGAGGGAACGUACAUUTT against Il18r1 | active: 5.74
48 | GUCAAAACACUCACGUACCTT against Mustn1 | inactive: 0.168
49 | GGUAUCUUGAGAAGCCAAUTT against Stat3 | inactive: -0.536
50 | GCCUGUAAGGAGAAUCAGCTT against Car4 | inactive: 0.684
51 | GGAGAUGUAACCAUAGGCCTT against Dctn6 | active: 2.07
52 | CGAGAUCUUUCCUAGUUUUTT against Mxd1 | inactive: 0.0738
53 | GGAGAUGCUGAAGGAUGAGTT against Prmt1 | inactive: -0.022
54 | GUGCAUUGUCUUUUGUAGATT against Olfr1095 | inactive: -0.753
55 | GCAGUCGCCGCUUUGUAAATT against Tlx3 | inactive: 0.669
56 | GGGAAACAAAUGGGUUGGCTT against Chil5 | inactive: -0.504
57 | GGAGGAAAGAAGUCCUACATT against Rnase2b | inactive: -0.835
58 | GGGAAACUGACCAUCAAAATT against Micu1 | inactive: 0.893
59 | CCAAGUACUGGAAAUUCAATT against Mmp15 | inactive: 1.3
60 | CGUGUUUGACAAGGCAUUGTT against Vps11 | inactive: -0.6
61 | GCAGUUUUAUAACAGCCCUTT against Bcs1l | inactive: -0.025
62 | CCUUCUUGUCCUUCUUUUCTT against Olfr503 | inactive: -1.36
63 | CCUCAUCGUUAUUUGGAUCTT against Tacr3 | inactive: -0.146
64 | GCGAAACGCAACAUAGUCATT against Npffr2 | inactive: -1.01
65 | AGCUGCUCUGAGUUAGAAATT against Scd2 | inactive: 0.934
66 | GCUUAAUCCGGCUACCACUTT against Selenon | inactive: -1.24
67 | GGACUGAGAAGAAAUGAGUTT against Il27ra | inactive: 0.386
68 | GGAGUACCAGAGUAUAUGATT against Nmrk1 | inactive: -0.969
69 | GCCUGUUUACGGUUUUUCUTT against Prkab2 | inactive: 0.551

An excerpt of these results, in CSV form.
Row,Sequence,z-score
46,GGAUACAAUCAUCGCCAUCTT against Olfr101,inactive: 1.3
47,GGAUGAGGGAACGUACAUUTT against Il18r1,active: 5.74
48,GUCAAAACACUCACGUACCTT against Mustn1,inactive: 0.168
49,GGUAUCUUGAGAAGCCAAUTT against Stat3,inactive: -0.536
51,GGAGAUGUAACCAUAGGCCTT against Dctn6,active: 2.07
52,CGAGAUCUUUCCUAGUUUUTT against Mxd1,inactive: 0.0738
53,GGAGAUGCUGAAGGAUGAGTT against Prmt1,inactive: -0.022
54,GUGCAUUGUCUUUUGUAGATT against Olfr1095,inactive: -0.753
55,GCAGUCGCCGCUUUGUAAATT against Tlx3,inactive: 0.669
56,GGGAAACAAAUGGGUUGGCTT against Chil5,inactive: -0.504
57,GGAGGAAAGAAGUCCUACATT against Rnase2b,inactive: -0.835
58,GGGAAACUGACCAUCAAAATT against Micu1,inactive: 0.893
59,CCAAGUACUGGAAAUUCAATT against Mmp15,inactive: 1.3
61,GCAGUUUUAUAACAGCCCUTT against Bcs1l,inactive: -0.025
62,CCUUCUUGUCCUUCUUUUCTT against Olfr503,inactive: -1.36
63,CCUCAUCGUUAUUUGGAUCTT against Tacr3,inactive: -0.146
64,GCGAAACGCAACAUAGUCATT against Npffr2,inactive: -1.01
65,AGCUGCUCUGAGUUAGAAATT against Scd2,inactive: 0.934
66,GCUUAAUCCGGCUACCACUTT against Selenon,inactive: -1.24
68,GGAGUACCAGAGUAUAUGATT against Nmrk1,inactive: -0.969
69,GCCUGUUUACGGUUUUUCUTT against Prkab2,inactive: 0.551
